Measurements as given in US20120052075A1.
No constants are given. Whether binding was seen depends on the method and setting. For part of these data: Binding seen in cells or lysates may run through a third protein. Some results given as binding are weak or reduced against the parent protein; the word gives no strength.

Chains of the proteins cited; added tags and fusions are not shown. Lines headed by an entry give the natural chain unless they say otherwise; changes in a name come on top.
UniProt Q96PQ0: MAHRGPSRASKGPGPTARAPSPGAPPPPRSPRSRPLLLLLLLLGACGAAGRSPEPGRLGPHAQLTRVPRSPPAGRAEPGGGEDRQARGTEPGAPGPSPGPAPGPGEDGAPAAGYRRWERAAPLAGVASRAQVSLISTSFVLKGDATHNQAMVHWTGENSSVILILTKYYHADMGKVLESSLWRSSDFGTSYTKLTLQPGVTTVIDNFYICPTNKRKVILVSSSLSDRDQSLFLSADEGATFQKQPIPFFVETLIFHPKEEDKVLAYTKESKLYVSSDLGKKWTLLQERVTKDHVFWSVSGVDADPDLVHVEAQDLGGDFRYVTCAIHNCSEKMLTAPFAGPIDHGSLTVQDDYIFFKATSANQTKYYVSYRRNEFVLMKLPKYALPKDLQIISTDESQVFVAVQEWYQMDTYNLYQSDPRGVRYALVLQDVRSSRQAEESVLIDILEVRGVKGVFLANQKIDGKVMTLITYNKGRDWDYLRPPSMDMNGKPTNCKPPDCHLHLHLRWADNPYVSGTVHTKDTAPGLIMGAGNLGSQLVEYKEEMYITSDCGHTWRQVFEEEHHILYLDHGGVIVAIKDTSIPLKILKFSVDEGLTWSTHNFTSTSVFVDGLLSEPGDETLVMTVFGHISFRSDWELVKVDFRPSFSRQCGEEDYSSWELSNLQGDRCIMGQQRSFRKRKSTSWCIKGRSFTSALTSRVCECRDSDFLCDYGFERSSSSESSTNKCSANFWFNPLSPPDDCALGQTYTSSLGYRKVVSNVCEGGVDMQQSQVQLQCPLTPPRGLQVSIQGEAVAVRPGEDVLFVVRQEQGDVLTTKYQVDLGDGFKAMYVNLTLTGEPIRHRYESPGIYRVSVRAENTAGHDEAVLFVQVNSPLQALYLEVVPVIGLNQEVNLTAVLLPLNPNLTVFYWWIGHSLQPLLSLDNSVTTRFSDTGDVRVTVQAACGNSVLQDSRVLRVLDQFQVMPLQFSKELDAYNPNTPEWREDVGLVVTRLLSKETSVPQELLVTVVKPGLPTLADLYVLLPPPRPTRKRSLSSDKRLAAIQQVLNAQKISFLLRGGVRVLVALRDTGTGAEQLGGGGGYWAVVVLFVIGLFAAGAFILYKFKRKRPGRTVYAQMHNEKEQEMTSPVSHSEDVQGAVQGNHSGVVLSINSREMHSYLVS
UniProt Q99523: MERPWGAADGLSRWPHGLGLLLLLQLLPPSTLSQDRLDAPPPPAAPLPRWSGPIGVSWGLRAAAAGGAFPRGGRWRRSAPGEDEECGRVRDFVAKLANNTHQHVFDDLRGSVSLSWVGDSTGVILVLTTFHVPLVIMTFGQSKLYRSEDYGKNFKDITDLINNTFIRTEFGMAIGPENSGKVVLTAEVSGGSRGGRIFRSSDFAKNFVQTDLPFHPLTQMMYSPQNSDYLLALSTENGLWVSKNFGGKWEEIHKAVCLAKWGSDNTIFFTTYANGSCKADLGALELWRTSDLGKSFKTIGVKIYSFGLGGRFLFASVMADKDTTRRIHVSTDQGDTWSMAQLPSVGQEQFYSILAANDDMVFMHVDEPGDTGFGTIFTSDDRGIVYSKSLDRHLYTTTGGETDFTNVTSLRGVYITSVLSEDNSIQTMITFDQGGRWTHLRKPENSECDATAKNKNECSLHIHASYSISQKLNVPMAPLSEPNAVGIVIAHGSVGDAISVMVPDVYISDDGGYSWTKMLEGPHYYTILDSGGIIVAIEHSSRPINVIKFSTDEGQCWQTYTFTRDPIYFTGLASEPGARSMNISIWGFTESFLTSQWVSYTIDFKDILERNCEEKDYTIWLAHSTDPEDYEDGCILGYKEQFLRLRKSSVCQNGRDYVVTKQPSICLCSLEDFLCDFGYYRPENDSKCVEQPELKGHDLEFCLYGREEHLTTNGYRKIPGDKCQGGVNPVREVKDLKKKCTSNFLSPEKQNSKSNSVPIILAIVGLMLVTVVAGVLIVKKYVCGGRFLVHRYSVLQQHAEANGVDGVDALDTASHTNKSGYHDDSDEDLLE
UniProt P08138: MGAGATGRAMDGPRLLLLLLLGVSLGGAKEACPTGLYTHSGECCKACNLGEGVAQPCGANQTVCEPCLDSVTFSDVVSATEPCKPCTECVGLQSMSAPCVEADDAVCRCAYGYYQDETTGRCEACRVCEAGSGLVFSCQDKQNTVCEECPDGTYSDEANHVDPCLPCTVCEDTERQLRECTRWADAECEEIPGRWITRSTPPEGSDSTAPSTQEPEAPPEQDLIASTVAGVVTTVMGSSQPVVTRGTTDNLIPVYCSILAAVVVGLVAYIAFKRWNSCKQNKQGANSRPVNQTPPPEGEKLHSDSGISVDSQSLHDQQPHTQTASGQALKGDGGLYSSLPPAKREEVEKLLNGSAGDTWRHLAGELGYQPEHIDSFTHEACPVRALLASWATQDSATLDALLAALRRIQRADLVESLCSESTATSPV
UniProt Q16620: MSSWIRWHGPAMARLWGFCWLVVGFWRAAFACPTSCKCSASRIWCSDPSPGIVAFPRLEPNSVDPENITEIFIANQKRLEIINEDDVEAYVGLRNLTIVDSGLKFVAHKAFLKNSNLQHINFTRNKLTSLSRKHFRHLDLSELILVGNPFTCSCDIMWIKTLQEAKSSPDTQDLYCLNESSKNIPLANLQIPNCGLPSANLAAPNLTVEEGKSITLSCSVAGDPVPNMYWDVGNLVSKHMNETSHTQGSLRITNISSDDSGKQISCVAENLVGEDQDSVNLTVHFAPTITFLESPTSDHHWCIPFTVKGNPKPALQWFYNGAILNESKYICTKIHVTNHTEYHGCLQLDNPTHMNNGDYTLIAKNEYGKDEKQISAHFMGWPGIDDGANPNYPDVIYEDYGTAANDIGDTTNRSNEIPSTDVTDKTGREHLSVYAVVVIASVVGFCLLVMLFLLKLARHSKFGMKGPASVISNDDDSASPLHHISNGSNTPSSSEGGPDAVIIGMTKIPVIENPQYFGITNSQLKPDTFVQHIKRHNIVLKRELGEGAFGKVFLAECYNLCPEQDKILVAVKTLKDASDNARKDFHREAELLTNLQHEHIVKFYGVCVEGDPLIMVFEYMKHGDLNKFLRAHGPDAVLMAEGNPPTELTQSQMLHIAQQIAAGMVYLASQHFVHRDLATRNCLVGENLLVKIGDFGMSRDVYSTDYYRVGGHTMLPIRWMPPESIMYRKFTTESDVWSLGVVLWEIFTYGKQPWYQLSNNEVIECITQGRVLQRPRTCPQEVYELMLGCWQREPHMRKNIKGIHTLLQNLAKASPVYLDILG

Columns and labels:
[1] = target: soluble SorCS2 (extracellular domain of SorCS2), immobilized on the Biacore chip (Homo sapiens in the sequence list; not stated for the assay) (UniProt Q96PQ0); experiment: SPR (BIAcore), soluble SorCS2 immobilized on a CM5 chip, p75 ECD at 1 uM in solution
[2] = target: soluble SorCS2 (extracellular domain of SorCS2), immobilized on the Biacore chip (Homo sapiens in the sequence list; not stated for the assay) (UniProt Q96PQ0); experiment: co-immunoprecipitation and SPR, as in FIG. 6
[3] = target: soluble SorCS2 (extracellular domain of SorCS2), immobilized on the Biacore chip (Homo sapiens in the sequence list; not stated for the assay) (UniProt Q96PQ0); experiment: SPR (Biacore), CM5 chip coated with SorCS2
[4] = target: soluble SorCS2 (extracellular domain of SorCS2), immobilized on the Biacore chip (Homo sapiens in the sequence list; not stated for the assay) (UniProt Q96PQ0); experiment: SPR (BIAcore), soluble SorCS2 immobilized on a CM5 chip, TrkB-Fc chimera at 500, 100 and 50 nM in solution
[5] = target: T1, soluble SorCS1, immobilized on the Biacore chip (Homo sapiens in the sequence list; not stated for the assay) (UniProt Q8WY21); experiment: SPR (BIAcore)
T1 sequence: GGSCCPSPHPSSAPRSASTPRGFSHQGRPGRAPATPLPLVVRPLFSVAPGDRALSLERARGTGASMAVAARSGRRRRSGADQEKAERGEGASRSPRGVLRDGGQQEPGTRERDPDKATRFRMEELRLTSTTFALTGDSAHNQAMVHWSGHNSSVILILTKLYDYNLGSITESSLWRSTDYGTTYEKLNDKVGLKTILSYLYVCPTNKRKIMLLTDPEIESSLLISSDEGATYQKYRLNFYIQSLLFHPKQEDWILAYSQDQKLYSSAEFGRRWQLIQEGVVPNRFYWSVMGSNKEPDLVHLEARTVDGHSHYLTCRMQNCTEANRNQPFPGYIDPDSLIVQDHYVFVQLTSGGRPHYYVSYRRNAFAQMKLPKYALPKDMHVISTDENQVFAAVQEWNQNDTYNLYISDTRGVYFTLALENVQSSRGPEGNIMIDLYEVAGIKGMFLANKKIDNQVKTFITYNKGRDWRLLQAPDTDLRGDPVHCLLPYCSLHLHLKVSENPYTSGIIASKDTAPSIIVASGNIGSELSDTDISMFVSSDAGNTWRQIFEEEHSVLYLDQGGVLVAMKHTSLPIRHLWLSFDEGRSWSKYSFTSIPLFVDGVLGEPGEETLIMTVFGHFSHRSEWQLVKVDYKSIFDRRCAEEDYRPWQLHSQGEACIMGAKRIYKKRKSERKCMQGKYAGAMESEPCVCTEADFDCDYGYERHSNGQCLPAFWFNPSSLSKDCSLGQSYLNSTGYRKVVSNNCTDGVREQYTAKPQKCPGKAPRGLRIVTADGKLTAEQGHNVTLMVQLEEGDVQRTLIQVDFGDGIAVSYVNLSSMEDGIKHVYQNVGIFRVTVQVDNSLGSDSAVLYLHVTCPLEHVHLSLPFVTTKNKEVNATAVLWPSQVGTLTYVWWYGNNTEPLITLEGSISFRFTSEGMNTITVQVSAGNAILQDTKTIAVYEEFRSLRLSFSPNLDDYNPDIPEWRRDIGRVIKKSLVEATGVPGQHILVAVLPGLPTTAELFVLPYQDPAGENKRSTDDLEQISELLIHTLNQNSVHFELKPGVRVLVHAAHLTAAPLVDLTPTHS

[6] = target: soluble SorCS2 (extracellular domain of SorCS2), immobilized on the Biacore chip (Homo sapiens in the sequence list; not stated for the assay) (UniProt Q96PQ0); experiment: SPR (BIAcore)
[7] = target: soluble Sortilin, immobilized on the Biacore chip (Homo sapiens in the sequence list; not stated for the assay) (UniProt Q99523); experiment: SPR (BIAcore)
[8] = target: soluble Sortilin, immobilized on the Biacore chip (Homo sapiens in the sequence list; not stated for the assay) (UniProt Q99523); experiment: SPR (BIAcore), soluble Sortilin immobilized on the chip, TrkB-Fc chimera at 500, 100 and 50 nM in solution
[9] = target: T1, soluble SorCS1, immobilized on the Biacore chip (Homo sapiens in the sequence list; not stated for the assay); experiment: SPR (BIAcore), soluble SorCS1 immobilized on the chip, TrkB-Fc chimera at 500, 100 and 50 nM in solution
[10] = target: SorCS2 expressed in stably transfected HEK293 cells (Homo sapiens in the sequence list; not stated for the assay) (UniProt Q96PQ0); experiment: co-immunoprecipitation with anti-SorCS2 antibody from DSP-crosslinked HEK293 cells, Western blot
[11] = target: SorCS2 expressed in stably transfected HEK293 cells (Homo sapiens in the sequence list; not stated for the assay) (UniProt Q96PQ0); experiment: co-immunoprecipitation from DSP-crosslinked, stably transfected HEK293 cells with anti-SorCS2 antibody on Gammabind beads, Western blot for p75

Measured: binding

soluble full-length extracellular domain of p75^NTR (from UniProt P08138 29-250) (receptor)
binds: [1] | [2] | [3]

TrkB-Fc chimera (R&D Systems) (from UniProt Q16620 32-430) (Fc fusion)
not listed: [1] | [2] | [10] | [11]
binds: all other assays above

p75^NTR expressed in stably transfected HEK293 cells (from UniProt P08138 29-427) (receptor)
binds: [10] | [11]
